Results published in the supplement of paper PMC6411743.
± gives the standard deviation of the averaged measurements. This is one part of the list.

By UniProt entry, the sequences of proteins in these tests, tags left out. Where a name states a change or a piece, a line headed by the entry shows the natural chain unless it says otherwise.
UniProt Q56NI9: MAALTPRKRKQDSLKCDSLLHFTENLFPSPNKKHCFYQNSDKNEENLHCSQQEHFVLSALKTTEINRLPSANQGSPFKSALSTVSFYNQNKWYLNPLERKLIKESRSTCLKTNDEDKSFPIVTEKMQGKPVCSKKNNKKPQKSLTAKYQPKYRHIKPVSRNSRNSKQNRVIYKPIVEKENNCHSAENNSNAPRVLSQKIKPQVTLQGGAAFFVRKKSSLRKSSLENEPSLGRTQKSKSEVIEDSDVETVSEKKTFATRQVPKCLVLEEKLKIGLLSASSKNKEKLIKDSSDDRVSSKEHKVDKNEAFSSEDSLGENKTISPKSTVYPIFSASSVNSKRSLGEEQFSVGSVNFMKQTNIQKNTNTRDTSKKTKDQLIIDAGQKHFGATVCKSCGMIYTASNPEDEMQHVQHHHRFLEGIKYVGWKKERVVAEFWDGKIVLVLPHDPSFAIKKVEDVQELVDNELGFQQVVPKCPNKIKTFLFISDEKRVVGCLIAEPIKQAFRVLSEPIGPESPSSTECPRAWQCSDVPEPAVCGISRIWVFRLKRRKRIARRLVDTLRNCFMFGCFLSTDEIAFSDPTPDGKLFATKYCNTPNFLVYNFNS
UniProt Q15910, whole entry, looked up: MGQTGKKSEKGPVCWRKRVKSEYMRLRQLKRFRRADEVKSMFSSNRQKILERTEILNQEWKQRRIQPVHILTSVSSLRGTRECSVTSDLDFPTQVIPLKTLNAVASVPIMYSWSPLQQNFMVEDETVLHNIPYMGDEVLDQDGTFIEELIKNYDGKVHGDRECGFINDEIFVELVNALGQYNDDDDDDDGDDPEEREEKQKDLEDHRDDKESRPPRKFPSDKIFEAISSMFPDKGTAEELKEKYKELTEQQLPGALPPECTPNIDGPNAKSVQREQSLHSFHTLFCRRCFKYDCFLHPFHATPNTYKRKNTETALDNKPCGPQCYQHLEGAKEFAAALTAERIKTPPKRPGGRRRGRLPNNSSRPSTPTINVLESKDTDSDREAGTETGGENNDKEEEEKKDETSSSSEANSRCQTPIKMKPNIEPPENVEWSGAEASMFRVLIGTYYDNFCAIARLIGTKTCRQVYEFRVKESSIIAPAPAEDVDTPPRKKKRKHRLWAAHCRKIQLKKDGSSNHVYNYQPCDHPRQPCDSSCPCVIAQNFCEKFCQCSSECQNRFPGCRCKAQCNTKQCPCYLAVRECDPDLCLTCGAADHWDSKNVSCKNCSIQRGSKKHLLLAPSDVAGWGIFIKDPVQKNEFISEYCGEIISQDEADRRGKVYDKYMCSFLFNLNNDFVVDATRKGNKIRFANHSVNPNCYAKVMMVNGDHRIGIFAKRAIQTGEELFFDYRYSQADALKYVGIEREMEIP
UniProt Q5JS54: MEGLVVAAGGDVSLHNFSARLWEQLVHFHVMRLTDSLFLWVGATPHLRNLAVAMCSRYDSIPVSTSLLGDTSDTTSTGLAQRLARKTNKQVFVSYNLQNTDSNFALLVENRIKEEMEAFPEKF
UniProt Q16539, whole entry: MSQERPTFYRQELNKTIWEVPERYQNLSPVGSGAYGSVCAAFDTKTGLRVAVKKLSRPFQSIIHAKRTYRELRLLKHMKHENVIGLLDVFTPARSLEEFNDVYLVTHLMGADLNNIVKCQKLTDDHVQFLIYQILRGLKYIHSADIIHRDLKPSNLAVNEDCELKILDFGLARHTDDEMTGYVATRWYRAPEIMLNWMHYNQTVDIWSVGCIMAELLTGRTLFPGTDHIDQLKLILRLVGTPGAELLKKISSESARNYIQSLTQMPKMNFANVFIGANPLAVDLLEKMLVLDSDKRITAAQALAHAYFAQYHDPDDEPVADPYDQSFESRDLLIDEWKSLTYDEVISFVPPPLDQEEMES
UniProt Q15050: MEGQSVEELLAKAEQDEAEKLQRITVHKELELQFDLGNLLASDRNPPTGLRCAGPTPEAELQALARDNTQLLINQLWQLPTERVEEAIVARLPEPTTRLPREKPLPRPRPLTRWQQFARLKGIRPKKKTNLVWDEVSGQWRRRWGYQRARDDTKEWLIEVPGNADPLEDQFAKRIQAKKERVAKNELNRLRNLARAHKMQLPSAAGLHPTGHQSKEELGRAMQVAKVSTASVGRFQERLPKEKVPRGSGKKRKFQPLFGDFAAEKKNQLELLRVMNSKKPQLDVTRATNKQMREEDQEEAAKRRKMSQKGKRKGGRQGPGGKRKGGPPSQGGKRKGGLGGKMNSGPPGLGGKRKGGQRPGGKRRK
UniProt Q2T9J0: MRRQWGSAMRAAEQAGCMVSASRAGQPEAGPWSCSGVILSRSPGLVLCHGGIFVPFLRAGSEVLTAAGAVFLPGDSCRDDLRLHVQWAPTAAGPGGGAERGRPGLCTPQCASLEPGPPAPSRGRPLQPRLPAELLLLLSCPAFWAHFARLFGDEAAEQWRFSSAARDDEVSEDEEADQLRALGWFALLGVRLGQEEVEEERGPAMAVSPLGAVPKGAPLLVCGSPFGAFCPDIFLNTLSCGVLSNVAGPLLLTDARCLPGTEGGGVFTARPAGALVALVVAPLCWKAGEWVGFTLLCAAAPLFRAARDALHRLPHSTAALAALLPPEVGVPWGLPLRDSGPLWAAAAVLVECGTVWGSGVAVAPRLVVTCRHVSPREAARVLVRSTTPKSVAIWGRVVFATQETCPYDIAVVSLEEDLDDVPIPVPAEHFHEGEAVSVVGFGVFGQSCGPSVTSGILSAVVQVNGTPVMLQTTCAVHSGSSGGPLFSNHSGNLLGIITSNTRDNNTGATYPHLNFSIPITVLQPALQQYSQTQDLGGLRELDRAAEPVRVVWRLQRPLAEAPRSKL
UniProt Q3ZAQ7: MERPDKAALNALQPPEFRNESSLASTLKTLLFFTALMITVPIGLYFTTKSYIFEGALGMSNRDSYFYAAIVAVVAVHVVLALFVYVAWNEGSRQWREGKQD
UniProt Q15286: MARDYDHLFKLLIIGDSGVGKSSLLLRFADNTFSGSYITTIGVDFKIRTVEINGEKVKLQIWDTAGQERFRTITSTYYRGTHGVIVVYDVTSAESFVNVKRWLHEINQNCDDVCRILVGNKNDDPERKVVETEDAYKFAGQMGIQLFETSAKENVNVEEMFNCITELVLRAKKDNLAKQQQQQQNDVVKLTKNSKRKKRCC
UniProt Q15397: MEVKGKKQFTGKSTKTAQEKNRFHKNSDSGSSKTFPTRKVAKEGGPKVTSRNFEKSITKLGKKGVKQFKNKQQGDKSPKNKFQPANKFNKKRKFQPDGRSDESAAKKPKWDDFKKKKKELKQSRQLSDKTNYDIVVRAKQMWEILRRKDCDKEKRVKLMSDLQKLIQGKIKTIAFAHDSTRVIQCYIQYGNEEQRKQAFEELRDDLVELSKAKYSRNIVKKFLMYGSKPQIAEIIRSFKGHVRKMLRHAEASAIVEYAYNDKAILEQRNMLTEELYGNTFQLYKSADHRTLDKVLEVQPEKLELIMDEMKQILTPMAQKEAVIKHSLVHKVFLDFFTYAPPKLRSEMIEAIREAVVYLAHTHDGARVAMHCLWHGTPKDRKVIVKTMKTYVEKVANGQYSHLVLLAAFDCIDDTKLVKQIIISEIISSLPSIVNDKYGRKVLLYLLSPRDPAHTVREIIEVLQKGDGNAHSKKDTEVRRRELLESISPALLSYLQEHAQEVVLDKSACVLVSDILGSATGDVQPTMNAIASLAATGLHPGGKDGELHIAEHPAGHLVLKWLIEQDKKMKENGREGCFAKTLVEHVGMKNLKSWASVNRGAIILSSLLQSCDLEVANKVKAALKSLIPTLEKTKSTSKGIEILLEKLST
UniProt Q14980: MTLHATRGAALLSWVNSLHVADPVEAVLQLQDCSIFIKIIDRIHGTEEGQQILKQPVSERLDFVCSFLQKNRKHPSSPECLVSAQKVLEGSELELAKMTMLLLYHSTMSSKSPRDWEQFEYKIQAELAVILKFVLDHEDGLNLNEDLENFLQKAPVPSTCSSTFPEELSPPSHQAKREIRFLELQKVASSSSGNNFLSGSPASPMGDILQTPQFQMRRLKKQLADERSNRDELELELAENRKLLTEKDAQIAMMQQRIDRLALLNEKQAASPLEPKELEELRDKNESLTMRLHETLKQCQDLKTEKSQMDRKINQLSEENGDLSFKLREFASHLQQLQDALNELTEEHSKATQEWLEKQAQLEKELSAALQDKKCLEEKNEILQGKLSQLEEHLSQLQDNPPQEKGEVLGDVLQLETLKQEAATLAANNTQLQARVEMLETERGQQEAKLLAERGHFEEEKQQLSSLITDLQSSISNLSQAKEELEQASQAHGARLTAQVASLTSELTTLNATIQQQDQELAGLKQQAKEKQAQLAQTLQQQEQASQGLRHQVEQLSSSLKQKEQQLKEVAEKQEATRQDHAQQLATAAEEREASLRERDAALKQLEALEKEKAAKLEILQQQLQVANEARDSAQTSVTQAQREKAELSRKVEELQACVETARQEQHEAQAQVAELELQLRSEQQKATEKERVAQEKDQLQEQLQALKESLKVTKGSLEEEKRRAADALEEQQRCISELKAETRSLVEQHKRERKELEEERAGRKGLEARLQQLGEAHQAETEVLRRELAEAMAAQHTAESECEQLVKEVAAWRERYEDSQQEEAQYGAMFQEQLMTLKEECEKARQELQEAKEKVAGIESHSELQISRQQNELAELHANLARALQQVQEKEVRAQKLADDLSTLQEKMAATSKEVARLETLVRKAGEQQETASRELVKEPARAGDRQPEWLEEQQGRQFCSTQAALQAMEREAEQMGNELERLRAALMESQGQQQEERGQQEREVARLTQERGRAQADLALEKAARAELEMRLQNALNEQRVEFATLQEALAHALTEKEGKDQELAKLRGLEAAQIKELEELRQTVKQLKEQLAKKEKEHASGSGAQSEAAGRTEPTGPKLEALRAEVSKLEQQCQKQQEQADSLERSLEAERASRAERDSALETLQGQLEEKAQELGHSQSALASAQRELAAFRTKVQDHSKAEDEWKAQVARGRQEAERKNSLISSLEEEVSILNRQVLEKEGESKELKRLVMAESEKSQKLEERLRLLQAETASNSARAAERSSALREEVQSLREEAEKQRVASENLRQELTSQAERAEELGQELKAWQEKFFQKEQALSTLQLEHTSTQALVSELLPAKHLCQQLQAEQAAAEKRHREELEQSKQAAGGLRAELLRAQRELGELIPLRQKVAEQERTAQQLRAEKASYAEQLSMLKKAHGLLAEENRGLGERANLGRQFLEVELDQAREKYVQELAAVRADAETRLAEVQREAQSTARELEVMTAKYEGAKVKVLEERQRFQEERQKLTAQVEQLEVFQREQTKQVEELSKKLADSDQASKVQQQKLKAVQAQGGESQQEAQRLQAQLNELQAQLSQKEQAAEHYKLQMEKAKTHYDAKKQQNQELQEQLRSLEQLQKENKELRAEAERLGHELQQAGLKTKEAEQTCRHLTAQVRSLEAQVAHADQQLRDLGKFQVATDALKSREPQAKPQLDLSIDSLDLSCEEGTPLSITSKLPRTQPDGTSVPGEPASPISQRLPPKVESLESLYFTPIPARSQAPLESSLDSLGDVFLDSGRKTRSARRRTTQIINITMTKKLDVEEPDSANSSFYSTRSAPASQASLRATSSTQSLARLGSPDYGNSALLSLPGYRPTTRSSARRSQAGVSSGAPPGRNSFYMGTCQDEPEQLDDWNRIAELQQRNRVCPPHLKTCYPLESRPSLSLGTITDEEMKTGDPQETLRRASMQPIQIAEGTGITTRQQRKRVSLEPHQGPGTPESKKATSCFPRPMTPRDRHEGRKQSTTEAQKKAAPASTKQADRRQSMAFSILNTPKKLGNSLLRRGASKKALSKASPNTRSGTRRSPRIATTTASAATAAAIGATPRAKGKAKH
UniProt Q15628: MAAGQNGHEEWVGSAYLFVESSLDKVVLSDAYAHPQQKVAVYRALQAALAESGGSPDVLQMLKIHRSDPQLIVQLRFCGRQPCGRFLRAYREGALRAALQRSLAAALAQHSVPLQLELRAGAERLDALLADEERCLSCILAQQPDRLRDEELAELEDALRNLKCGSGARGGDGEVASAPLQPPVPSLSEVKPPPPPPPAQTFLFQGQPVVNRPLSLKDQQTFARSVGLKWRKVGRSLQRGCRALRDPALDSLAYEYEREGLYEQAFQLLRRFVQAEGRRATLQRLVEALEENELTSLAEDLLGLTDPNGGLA

Compound: Nc1nc2c(ncn2[C@@H]2O[C@H](COP(=O)(O)OP(=O)(O)OP(=O)(O)O)[C@@H](O)[C@H]2O)c(=O)[nH]1 [guanosine triphosphate]
Test: NP40-soluble protein abundance relative to vehicle (solubility fold change) (ratio); higher = more soluble protein in presence of GTP
Procedure, shortened: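 Across three independent experiments, values are fold changes against the detergent-processed vehicle for each replicate, based on vsn-normalised intensities. The samples were Jurkat crude lysate treated with eight concentrations (0.1 to 10 mM) for 10 min at room temperature and then 3 min at 37 °C. Lysate was solubilised with 0.8% NP40 and benzonase, ultracentrifuged, and the supernatant analysed by TMT-labelled LC-MS/MS.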

Target	NP40-soluble protein abundance (concentration: 0.1mM)	NP40-soluble protein abundance (concentration: 0.5mM)	NP40-soluble protein abundance (concentration: 1mM)	NP40-soluble protein abundance (concentration: 2mM)	NP40-soluble protein abundance (concentration: 4mM)	NP40-soluble protein abundance (concentration: 6mM)	NP40-soluble protein abundance (concentration: 8mM)	NP40-soluble protein abundance (concentration: 10mM)
TRMT5 (UniProt Q32P41)	1.03 ± 0.043	1.06 ± 0.074	0.949 ± 0.059	0.965 ± 0.091	0.958 ± 0.058	0.957 ± 0.1	0.921 ± 0.038	0.883 ± 0.058
UniProt Q56NI9 and related entries	1.05 ± 0.12	1.06 ± 0.056	0.9483 ± 0.0077	0.9853 ± 0.0096	1.09 ± 0.16	1.02 ± 0.051	1.03 ± 0.056	1.01 ± 0.013
UniProt Q15910 and related entries	1.07 ± 0.026	1.12 ± 0.026	1.12 ± 0.051	1.18 ± 0.059	1.23 ± 0.086	1.26 ± 0.08	1.33 ± 0.14	1.3 ± 0.043
UniProt Q5JS54 and related entries	0.88 ± 0.017	0.869 ± 0.039	0.944 ± 0.032	0.934 ± 0.022	0.911 ± 0.033	0.9391 ± 0.0056	0.865 ± 0.041	0.894 ± 0.041
UniProt Q14790 and related entries	0.967 ± 0.022	0.958 ± 0.063	0.876 ± 0.032	0.901 ± 0.045	0.874 ± 0.043	0.889 ± 0.027	0.802 ± 0.049	0.824 ± 0.078
UniProt Q16539 and related entries	0.9976 ± 0.0083	1.04 ± 0.012	0.971 ± 0.014	0.979 ± 0.057	0.946 ± 0.044	0.944 ± 0.03	0.921 ± 0.02	0.895 ± 0.057
RRS1 (UniProt Q15050)	0.911 ± 0.042	1.07 ± 0.057	1.1 ± 0.076	1.01 ± 0.075	0.99 ± 0.12	0.985 ± 0.059	0.976 ± 0.14	1.04 ± 0.027
QRICH1 (UniProt Q2TAL8)	0.908 ± 0.098	0.912 ± 0.095	0.897 ± 0.094	0.881 ± 0.098	0.872 ± 0.13	0.889 ± 0.092	0.865 ± 0.096	0.885 ± 0.098
UniProt Q2T9J0 and related entries	0.835 ± 0.15	0.843 ± 0.17	0.867 ± 0.035	0.981 ± 0.26	0.914 ± 0.17	0.8195 ± 0.008	0.783 ± 0.032	0.903 ± 0.11
VMA21 (UniProt Q3ZAQ7)	0.9959 ± 0.0065	0.947 ± 0.034	0.947 ± 0.013	0.942 ± 0.04	0.95 ± 0.049	0.937 ± 0.034	0.885 ± 0.036	0.9501 ± 0.0088
UniProt Q15286	1.04 ± 0.048	1.045 ± 0.0073	0.959 ± 0.038	0.933 ± 0.036	0.967 ± 0.034	0.939 ± 0.052	0.938 ± 0.026	0.892 ± 0.059
UniProt Q27J81-2|Q27J81	1.02 ± 0.026	0.99 ± 0.013	1 ± 0.033	0.987 ± 0.03	0.988 ± 0.058	0.975 ± 0.013	1.007 ± 0.0058	0.972 ± 0.038
UniProt Q15397	1.07 ± 0.042	1.04 ± 0.05	1.12 ± 0.046	1.27 ± 0.036	1.31 ± 0.021	1.32 ± 0.027	1.31 ± 0.071	1.39 ± 0.028
UniProt Q14980 and related entries	0.943 ± 0.07	1.01 ± 0.07	1.08 ± 0.079	1.02 ± 0.12	0.999 ± 0.13	0.999 ± 0.11	1.04 ± 0.11	1.02 ± 0.12
TRADD (UniProt Q15628)	1.03 ± 0.029	1.13 ± 0.1	1.06 ± 0.081	1.1 ± 0.071	1.01 ± 0.069	1.03 ± 0.081	0.956 ± 0.073	0.972 ± 0.09

Single records (already shown). Order of values: NP40-soluble protein abundance (concentration: 0.1mM)	NP40-soluble protein abundance (concentration: 0.5mM)	NP40-soluble protein abundance (concentration: 1mM)	NP40-soluble protein abundance (concentration: 2mM)	NP40-soluble protein abundance (concentration: 4mM)	NP40-soluble protein abundance (concentration: 6mM)	NP40-soluble protein abundance (concentration: 8mM)	NP40-soluble protein abundance (concentration: 10mM)
UniProt Q15286 is entered as 1.04 ± 0.048	1.045 ± 0.0073	0.959 ± 0.038	0.933 ± 0.036	0.967 ± 0.034	0.939 ± 0.052	0.938 ± 0.026	0.892 ± 0.059
UniProt Q15910 and related entries is entered as 1.07 ± 0.026	1.12 ± 0.026	1.12 ± 0.051	1.18 ± 0.059	1.23 ± 0.086	1.26 ± 0.08	1.33 ± 0.14	1.3 ± 0.043
